# In PubChem BioAssay AID1671190 (National Center for Advancing Translational Sciences (NCATS), 2021):
# Amino acid sequences for entries named in this document (tags omitted). A change or cut given only in a name is not applied to a line headed by its entry.
# UniProt P18054: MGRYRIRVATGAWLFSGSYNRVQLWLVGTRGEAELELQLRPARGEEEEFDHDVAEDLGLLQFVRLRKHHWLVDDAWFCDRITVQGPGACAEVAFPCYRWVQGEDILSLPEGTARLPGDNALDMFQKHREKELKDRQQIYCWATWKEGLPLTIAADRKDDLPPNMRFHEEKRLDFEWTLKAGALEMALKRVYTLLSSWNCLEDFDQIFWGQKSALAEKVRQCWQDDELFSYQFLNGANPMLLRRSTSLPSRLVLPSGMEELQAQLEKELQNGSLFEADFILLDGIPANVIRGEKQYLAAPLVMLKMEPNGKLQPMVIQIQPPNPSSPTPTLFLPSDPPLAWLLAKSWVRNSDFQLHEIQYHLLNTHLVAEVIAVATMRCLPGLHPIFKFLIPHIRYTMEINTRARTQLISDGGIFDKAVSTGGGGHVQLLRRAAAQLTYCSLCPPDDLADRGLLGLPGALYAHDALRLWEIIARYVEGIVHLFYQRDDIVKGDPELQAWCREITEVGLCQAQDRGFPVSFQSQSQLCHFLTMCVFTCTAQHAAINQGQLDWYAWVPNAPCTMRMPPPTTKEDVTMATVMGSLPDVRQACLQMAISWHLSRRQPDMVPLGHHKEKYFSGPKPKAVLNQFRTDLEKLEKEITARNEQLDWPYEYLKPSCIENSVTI
# Screen size: about 580,000 compounds; about 6,100 (1.1%) were called active. The shares of active, inactive and inconclusive entries below differ from those in the screen. The call rests on the fitted dose curve; in most records, active means well fitted inhibition curve with a large enough effect; inconclusive means small, poorly fitted or top-dose-only effect, or another doubt; inactive means no such curve, though single readings can be large or run the other way. Potencies beside an inconclusive call are fits to weak or partial responses and may not hold up.
# Target: Polyunsaturated fatty acid lipoxygenase ALOX12 (Homo sapiens) (UniProt P18054)
# Assay: Primary qHTS assay for inhibitors of human arachidonate 12S-lipoxygenase (ALOX12): Round 2
# Settings: purified 12hLO, xylenol orange hydroperoxide absorbance; series mostly up to 108 µM
# How it was run: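 Hydroperoxide product was detected by ferrous iron/xylenol orange as the 573 to 405 nm absorbance ratio. Arachidonic acid at 40 uM (final) was turned over for 30 min at room temperature by 150 nM human 12hLO, pH 7.0 Hepes buffer, after 15 min compound preincubation.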
# Potency means the concentration at half of the fitted maximal effect.
row,Structure (SMILES),Potency
1,COc1ccccc1N1CCN(C(=O)CSc2nc3ncnc(N)c3[nH]2)CC1,"inconclusive: 2 µM [inhibitor, full curve, poor fit]"
2,O=C(COC(=O)c1ccc(O)cc1O)NC12CC3CC(CC(C3)C1)C2,"inconclusive: 79.4 µM [inhibitor, single point]"
3,Cc1cccc(-n2c3nc(=O)n(C)c(=O)c-3cc3c(Cl)cccc32)c1C,"inconclusive: 50.1 µM [inhibitor, partial curve, poor fit]"
4,Cc1nc(SCC(=O)NC2CCS(=O)(=O)C2)c(C#N)c(C)c1C (stereo not drawn),inactive
5,Cc1ncc(CN)c(N)n1,"inconclusive: 3.16 µM [inhibitor, full curve, poor fit]"
6,O=C(NCc1ccc2[nH]c(=O)[nH]c2c1)[C@H]1CNC[C@H](C(=O)N2CCCC2)C1,inactive
7,CCN1CCCCC12Cc1ccccc1CN(S(=O)(=O)c1ccccc1)C2 (stereo not drawn),"inconclusive: 25.1 µM [inhibitor, partial curve]"
8,C#CCn1cc2c(c1-c1ccccc1)c(=O)n(C)c(=O)n2C,"inconclusive: 126 µM [inhibitor, partial curve, poor fit]"
9,CCNC(=O)N1C[C@@H]2OCC(=O)N(C(C)C)[C@@H]2C1,inactive
10,O=C(OCC(=O)N1CCc2ccccc21)c1ccc([N+](=O)[O-])o1,"inconclusive: 56.2 µM [inhibitor, partial curve, poor fit]"
11,Cc1ccc(NS(=O)(=O)c2cccc(C(=O)NCC3CCCO3)c2)cc1 (stereo not drawn),"inconclusive: 2 µM [inhibitor, full curve, poor fit]"
12,COc1cccc(C2=Nc3cccc4cccc(c34)N2)c1,"inconclusive: 79.4 µM [inhibitor, single point]"
13,Cc1sc2ncnc(N3CCC(C(=O)Nc4sc5c(c4C(N)=O)CCC(C)C5)CC3)c2c1C (stereo not drawn),"inconclusive: 3.55 µM [inhibitor, full curve]"
14,O=C(Cn1ccc2cc(S(=O)(=O)N3CCCCC3)ccc21)N1CCOCC1,inactive
15,COCCn1c(=O)c(-c2cccc(C#N)c2)nc2cnc(Nc3ccccc3)nc21,"inconclusive: 14.1 µM [inhibitor, partial curve, poor fit]"
16,Cc1nc2nc(SCC(=O)NC3CCCC3)nn2c(C)c1Cc1cccc(Cl)c1,inactive
17,Cc1cccc(S(=O)(=O)NC(=O)C2(C)CCN2C(=O)CCc2ccccc2)c1 (stereo not drawn),"inconclusive: 44.7 µM [inhibitor, partial curve, poor fit]"
18,CCOc1ccc(OCC)c(NC(=O)CN2CCN(CC)CC2)c1,"inconclusive: 0.398 µM [inhibitor, full curve, poor fit]"

# A section of the results above, as a working copy:
row,Structure (SMILES),Potency
6,O=C(NCc1ccc2[nH]c(=O)[nH]c2c1)[C@H]1CNC[C@H](C(=O)N2CCCC2)C1,inactive
7,CCN1CCCCC12Cc1ccccc1CN(S(=O)(=O)c1ccccc1)C2 (stereo not drawn),"inconclusive: 25.1 µM [inhibitor, partial curve]"
